From PubChem BioAssay (EPA / NIEHS)
The shares of active, inactive and inconclusive entries below differ from those in the screen. Where the call is inconclusive, the potency comes from a doubtful curve fit. Active and inactive are the calls of the source. Rule for the calls: active = hit-call score of the fitted dose curve at least 0.9, where 1 is the maximum; inconclusive = response in the unintended direction; inactive = score below 0.9.

Protein sequences, listed by entry. Tags and fused reporters are not part of them.
UniProt P19327, whole entry, looked up: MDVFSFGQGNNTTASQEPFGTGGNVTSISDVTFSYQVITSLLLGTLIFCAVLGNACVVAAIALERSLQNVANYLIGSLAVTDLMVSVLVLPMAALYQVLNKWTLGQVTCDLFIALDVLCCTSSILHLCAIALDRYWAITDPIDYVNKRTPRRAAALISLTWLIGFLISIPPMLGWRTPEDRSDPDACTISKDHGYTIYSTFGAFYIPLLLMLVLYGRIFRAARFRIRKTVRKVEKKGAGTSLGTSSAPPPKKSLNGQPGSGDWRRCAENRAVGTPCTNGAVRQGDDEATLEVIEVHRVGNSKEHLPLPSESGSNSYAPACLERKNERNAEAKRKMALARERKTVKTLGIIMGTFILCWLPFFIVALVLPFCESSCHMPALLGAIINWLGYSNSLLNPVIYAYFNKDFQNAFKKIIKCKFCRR

Target: rat Serotonin, 5-Hydroxytryptamine Receptor (5HT), Non-Selective Binding, Htr1a (gene 24473) (UniProt P19327)
Assay: NVS_GPCR_r5HT_NonSelective: NovaScreen (NVS) G Protein-Coupled Receptor Assay for rat Serotonin, 5-Hydroxytryptamine Receptor (5HT), Non-Selective Binding (AID 2283295)
Experimental: NVS_GPCR_r5HT_NonSelective is a biochemical, single-readout assay that uses extracted gene-proteins from Rat cortical membranes in a tissue-based cell-free assay. Measurements were taken 1 hour after chemical dosing in a 48-well plate.NVS_GPCR_r5HT_NonSelective is one of one assay component(s) measured or calculated from the NVS_GPCR_r5HT_NonSelective assay. It is designed to make measurements of radioligand binding, a form of binding reporter, as detected with scintillation counting signals by Filter-based radiodetection technology.Data from the assay component NVS_GPCR_r5HT_NonSelective was analyzed into 1 assay endpoint. This assay endpoint, NVS_GPCR_r5HT_NonSelective, was analyzed in the positive analysis fitting direction relative to DMSO as the negative control and baseline of activity. Using a type of binding reporter, loss-of-signal activity can be used to understand changes in the binding as they relate to the gene Htr1a. Furthermore, this assay endpoint can be referred to as a primary readout, because the performed assay has only produced 1 assay endpoint. To generalize the intended target to other relatable targets, this assay endpoint is annotated to the gpcr intended target family, where the subfamily is rhodopsin-like receptor.
Binding assays used specific radioligands (tritiated, iodinated) with non-radioactive competitive displacement ligands in agonist or antagonist protocols (as indicated) and various reference compounds and inhibitors to titrate specific binding to receptors and transporters. Most enzyme assays (CYPs, kinases, phosphatases, proteases, HDACs) used recombinant protein and specific substrates (fluorescence mostly, some colorimetric and radioactive) and inhibitors, followed by a biochemical separation of substrate and product. All assays for the biochemical HTS were initially run in duplicate at a single concentration (10 uM for CYP450 assays and 25 uM for all others). […] Each assay was run with positive and negative controls, and concurrent controls on every plate. The follow-up (secondary) screen tested active chemical-pairs in concentration series, as well as a few additional assays not tested in the primary screen, some selected negative inactives, and several cases re-run in the concentration series for confirmatory purposes.

| SMILES | outcome | AC50 |
| --- | --- | --- |
| CS/C(C)=N/OC(=O)N(C)SN(C)C(=O)O/N=C(\C)SC | inactive |  |
| CNc1cnn(-c2cccc(C(F)(F)F)c2)c(=O)c1Cl |  | inconclusive: 25 µM |
| COc1cc(OC)nc(Sc2cccc(Cl)c2C(=O)O)n1 | inactive |  |
| CC(C)C1(C)N=C(c2ncccc2C(=O)O)NC1=O (centres undefined) |  | inconclusive: 25 µM |
| O=C(Nc1ccccc1)Nc1ccnc(Cl)c1 |  | active: 17 µM |
| COC(=O)N(C(=O)N1CO[C@@]2(C(=O)OC)Cc3cc(Cl)ccc3C2=N1)c1ccc(OC(F)(F)F)cc1 | inactive |  |
| Cc1cccc([N+](=O)[O-])c1 |  | inconclusive: 25 µM |
| O=C(O)COc1ccc(Cl)cc1Cl |  | inconclusive: 0.0754 µM |
| N#Cc1c[nH]cc1-c1cccc2c1OC(F)(F)O2 | inactive |  |
| Cc1ccc(N=CN(C)C=Nc2ccc(C)cc2C)c(C)c1 | inactive |  |
| O=P(OCCCl)(OCCCl)OCCCl |  | inconclusive: 25 µM |
| OCCCl | inactive |  |
| COP(=S)(OC)SCN1C(=O)c2ccccc2C1=O |  | inconclusive: 25 µM |
| CC(C)(OOC(C)(C)c1ccccc1)c1ccccc1 |  | inconclusive: 7.99 µM |

An excerpt of these results, tab-delimited:
SMILES	outcome	AC50
COC(=O)N(C(=O)N1CO[C@@]2(C(=O)OC)Cc3cc(Cl)ccc3C2=N1)c1ccc(OC(F)(F)F)cc1	inactive	
COP(=S)(OC)SCN1C(=O)c2ccccc2C1=O		inconclusive: 25 µM
